Experimental findings from PMC6801678 are described below.

Results are given in words; binding and its absence hold for the method and conditions named. In cells and extracts the contact can be indirect. A result given as binding can be weak or reduced; the word gives no strength. Sequences can lack the tags named with a protein.

The test concerns the target FLAG3-Tric∆C, tricellulin lacking the complete cytosolic C-terminus (human). Kind of test: co-IP; HEK-293 cells co-transfected with FLAG3-tricellulin constructs and GFP-LSR, lysed 48 h after transfection in modified RIPA buffer; IP with anti-FLAG M2 and Protein A Sepharose at 4 °C; Western blot with anti-LSR and anti-FLAG.

B1: GFP-tagged lipolysis-stimulated lipoprotein receptor (LSR)/angulin-1 (protein, UniProt Q99KG5 36-594)
chain: AIQVTVPDPYHVVILFQPVTLHCTYQMSNTLTAPIVIWKYKSFCRDRVADAFSPASVDNQLNAQLAAGNPGYNPYVECQDSVRTVRVVATKQGNAVTLGDYYQGRRITITGNADLTFEQTAWGDSGVYYCSVVSAQDLDGNNEAYAELIVLGRTSEAPELLPGFRAGPLEDWLFVVVVCLASLLFFLLLGICWCQCCPHTCCCYVRCPCCPDKCCCPEALYAAGKAATSGVPSIYAPSIYTHLSPAKTPPPPPAMIPMRPPYGYPGDFDRTSSVGGHSSQVPLLREVDGSVSSEVRSGYRIQANQQDDSMRVLYYMEKELANFDPSRPGPPNGRVERAMSEVTSLHEDDWRSRPSRAPALTPIRDEEWNRHSPRSPRTWEQEPLQEQPRGGWGSGRPRARSVDALDDINRPGSTESGRSSPPSSGRRGRAYAPPRSRSRDDLYDPDDPRDLPHSRDPHYYDDLRSRDPRADPRSRQRSHDPRDAGFRSRDPQYDGRLLEEALKKKGAGERRRVYREEEEEEEEGHYPPAPPPYSETDSQASRERRMKKNLALSRESLVV
On to B1, for which the binding result was “binds weakly”.
